Results are given in words; binding and its absence hold for the method and conditions named. In cells and extracts the contact can be indirect. Some results given as binding are weak or reduced against the parent protein; the word gives no strength.
Target: p65 subunit of NF-κB (mouse heart) (mouse (endogenous in heart)) (UniProt Q04207)
Assay: co-IP; protein extracts of heart of TNF1.6 or wild-type mice precipitated with anti-p65, blotted with anti-E2F1

By UniProt entry, the sequences of proteins in these tests, tags left out.
UniProt Q04207: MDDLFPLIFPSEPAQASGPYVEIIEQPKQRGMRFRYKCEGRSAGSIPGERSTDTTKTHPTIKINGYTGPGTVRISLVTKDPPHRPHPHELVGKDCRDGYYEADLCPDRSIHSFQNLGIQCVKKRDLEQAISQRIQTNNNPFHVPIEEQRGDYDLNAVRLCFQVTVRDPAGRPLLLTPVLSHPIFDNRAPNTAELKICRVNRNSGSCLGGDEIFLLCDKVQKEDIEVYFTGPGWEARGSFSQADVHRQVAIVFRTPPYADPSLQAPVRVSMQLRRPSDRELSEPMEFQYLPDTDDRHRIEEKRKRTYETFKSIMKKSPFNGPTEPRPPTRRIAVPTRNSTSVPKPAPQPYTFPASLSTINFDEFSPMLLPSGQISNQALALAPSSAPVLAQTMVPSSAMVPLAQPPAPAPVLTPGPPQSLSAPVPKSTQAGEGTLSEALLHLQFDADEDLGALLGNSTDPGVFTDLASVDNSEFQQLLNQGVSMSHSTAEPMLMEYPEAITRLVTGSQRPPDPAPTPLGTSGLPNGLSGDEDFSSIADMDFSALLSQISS
UniProt Q61501: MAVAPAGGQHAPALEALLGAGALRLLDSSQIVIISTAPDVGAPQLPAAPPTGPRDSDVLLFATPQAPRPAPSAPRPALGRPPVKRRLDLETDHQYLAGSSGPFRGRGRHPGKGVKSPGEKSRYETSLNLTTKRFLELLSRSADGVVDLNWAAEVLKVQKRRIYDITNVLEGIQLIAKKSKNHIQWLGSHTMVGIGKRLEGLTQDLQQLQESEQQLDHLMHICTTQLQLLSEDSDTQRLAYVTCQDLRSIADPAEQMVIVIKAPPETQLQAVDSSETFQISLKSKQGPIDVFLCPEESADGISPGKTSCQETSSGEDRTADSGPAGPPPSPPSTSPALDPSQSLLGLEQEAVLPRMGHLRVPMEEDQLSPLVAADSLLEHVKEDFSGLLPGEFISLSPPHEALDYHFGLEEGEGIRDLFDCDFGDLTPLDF

binding: binds
Substance: E2F1 (mouse heart) (from UniProt Q61501 1-430)
